According to patent US9458203B2 (priority 2011, dated 2016):
Strings that start with PEPTIDE1 are HELM notation: dots part the residues, brackets hold end groups and non-standard residues.

Assay: general procedure: Fmoc solid-phase peptide synthesis; Fmoc-Phe(Otbu)-wang resin or Fmoc-Arg(Otbu)-CTC resin (I); Fmoc-Arg(Otbu)-wang or CTC resin (II); Fmoc-Phe(Otbu)-wang or
Details: whole synthesis, RP-HPLC

Substance	final HPLC purity
PEPTIDE1{F.Q.P.V.L.H.L.V.A.L.N.S.P.L.S.G.G.M.R.G.I.R.G.A.D.F.Q.C.F.Q.Q.A.R.A.V.G.L.A.G.T.F.R.A}$$$$V2.0	95.39%
PEPTIDE1{R.G.D.G.G.G.G.F.Q.P.V.L.H.L.V.A.L.N.S.P.L.S.G.G.M.R.G.I.R.G.A.D.F.Q.C.F.Q.Q.A.R.A.V.G.L.A.G.T.F.R.A}$$$$V2.0	98.41%
